Values quoted from earlier work as cited in patent EP1335967B1, “CLEANING COMPOSITIONS” (UNILEVER N.V., priority 2000, dated 2002).

Details: grams of solid to form a saturated solution in 100g of deionised water at 20°C

SMILES: NC(N)=O [Urea]
- Water Solubility (g/100g): >100 g/100g
